Results published in PMC12305169.
These are yes or no findings as the source states them, for the method shown. Binding seen in cells or lysates may run through a third protein. Some entries that bind do so weakly or less than the wild type. For part of these data: Sequences can lack the tags named with a protein.

Chains of the proteins cited; added tags and fusions are not shown.
UniProt Q14145: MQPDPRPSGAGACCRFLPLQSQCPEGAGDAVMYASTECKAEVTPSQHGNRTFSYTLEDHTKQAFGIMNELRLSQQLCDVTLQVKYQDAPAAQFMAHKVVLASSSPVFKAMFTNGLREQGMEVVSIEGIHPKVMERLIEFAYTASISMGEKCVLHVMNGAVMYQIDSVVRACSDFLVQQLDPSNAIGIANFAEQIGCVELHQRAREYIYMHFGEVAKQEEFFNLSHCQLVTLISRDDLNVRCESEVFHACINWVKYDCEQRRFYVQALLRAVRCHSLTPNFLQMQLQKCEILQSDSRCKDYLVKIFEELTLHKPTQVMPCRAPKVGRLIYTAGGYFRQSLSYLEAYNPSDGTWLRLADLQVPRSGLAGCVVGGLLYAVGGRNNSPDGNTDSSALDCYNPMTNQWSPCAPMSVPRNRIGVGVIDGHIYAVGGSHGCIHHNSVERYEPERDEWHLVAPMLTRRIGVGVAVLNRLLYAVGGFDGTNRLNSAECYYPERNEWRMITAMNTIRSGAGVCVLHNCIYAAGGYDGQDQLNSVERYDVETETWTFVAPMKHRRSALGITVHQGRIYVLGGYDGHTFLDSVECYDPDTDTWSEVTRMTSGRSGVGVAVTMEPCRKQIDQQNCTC

T1: nuclear factor erythroid 2-related factor 2 (Nrf2), endogenous (human (endogenous in MDA-MB-231 and MDA-MB-468)) (UniProt Q16236)
T1 sequence: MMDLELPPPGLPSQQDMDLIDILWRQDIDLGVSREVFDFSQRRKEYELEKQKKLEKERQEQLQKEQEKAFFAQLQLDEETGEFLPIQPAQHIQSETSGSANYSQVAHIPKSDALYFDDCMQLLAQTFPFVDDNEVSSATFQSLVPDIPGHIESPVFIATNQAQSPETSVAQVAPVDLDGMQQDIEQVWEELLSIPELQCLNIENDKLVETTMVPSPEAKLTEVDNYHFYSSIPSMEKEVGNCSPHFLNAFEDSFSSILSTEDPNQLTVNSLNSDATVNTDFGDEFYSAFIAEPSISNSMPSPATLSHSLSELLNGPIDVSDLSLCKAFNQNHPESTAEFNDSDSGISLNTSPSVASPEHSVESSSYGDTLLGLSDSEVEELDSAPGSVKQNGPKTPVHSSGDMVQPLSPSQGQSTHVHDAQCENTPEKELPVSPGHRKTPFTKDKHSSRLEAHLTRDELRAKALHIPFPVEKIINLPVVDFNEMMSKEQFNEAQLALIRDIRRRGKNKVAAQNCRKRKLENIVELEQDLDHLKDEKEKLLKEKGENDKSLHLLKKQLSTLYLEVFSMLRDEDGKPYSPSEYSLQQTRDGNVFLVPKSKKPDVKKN


Tests used:
[1] = target: T1, nuclear factor erythroid 2-related factor 2 (Nrf2), endogenous (human (endogenous in MDA-MB-231 and MDA-MB-468)); test: co-IP; endogenous immunoprecipitation from MDA-MB-231 and MDA-MB-468 cell lysates; precipitating antibody not given
[2] = target: Kelch-like ECH-associated protein 1 (Keap1), endogenous (human (endogenous in MDA-MB-231 and MDA-MB-468)) (UniProt Q14145); test: as above
[3] = target: Myc-Keap1 (Keap1 WT) (human) (UniProt Q14145); test: co-IP; HEK-293T cells transfected with Flag-EDEM1 and Myc-Keap1 (WT or truncated mutants); Flag-IP and Myc-IP, immunoblot

binding [1] | binding [2] | binding [3] | Binder
no binding | binds | – | EDEM1 (ER degradation enhancing α-mannosidase-like 1), endogenous (protein, UniProt Q92611 1-657) MQWRALVLGLVLLRLGLHGVLWLVFGLGPSMGFYQRFPLSFGFQRLRSPDGPASPTSGPVGRPGGVSGPSWLQPPGTGAAQSPRKAPRRPGPGMCGPANWGYVLGGRGRGPDEYEKRYSGAFPPQLRAQMRDLARGMFVFGYDNYMAHAFPQDELNPIHCRGRGPDRGDPSNLNINDVLGNYSLTLVDALDTLAIMGNSSEFQKAVKLVINTVSFDKDSTVQVFEATIRVLGSLLSAHRIITDSKQPFGDMTIKDYDNELLYMAHDLAVRLLPAFENTKTGIPYPRVNLKTGVPPDTNNETCTAGAGSLLVEFGILSRLLGDSTFEWVARRAVKALWNLRSNDTGLLGNVVNIQTGHWVGKQSGLGAGLDSFYEYLLKSYILFGEKEDLEMFNAAYQSIQNYLRRGREACNEGEGDPPLYVNVNMFSGQLMNTWIDSLQAFFPGLQVLIGDVEDAICLHAFYYAIWKRYGALPERYNWQLQAPDVLFYPLRPELVESTYLLYQATKNPFYLHVGMDILQSLEKYTKVKCGYATLHHVIDKSTEDRMESFFLSETCKYLYLLFDEDNPVHKSGTRYMFTTEGHIVSVDEHLRELPWKEFFSEEGGQDQGGKSVHRPKPHELKVINSSSNCNRVPDERRYSLPLKSIYMRQIDQMVGLI
– | – | binds | Flag-EDEM1 (human) (protein, UniProt Q92611 1-657) MQWRALVLGLVLLRLGLHGVLWLVFGLGPSMGFYQRFPLSFGFQRLRSPDGPASPTSGPVGRPGGVSGPSWLQPPGTGAAQSPRKAPRRPGPGMCGPANWGYVLGGRGRGPDEYEKRYSGAFPPQLRAQMRDLARGMFVFGYDNYMAHAFPQDELNPIHCRGRGPDRGDPSNLNINDVLGNYSLTLVDALDTLAIMGNSSEFQKAVKLVINTVSFDKDSTVQVFEATIRVLGSLLSAHRIITDSKQPFGDMTIKDYDNELLYMAHDLAVRLLPAFENTKTGIPYPRVNLKTGVPPDTNNETCTAGAGSLLVEFGILSRLLGDSTFEWVARRAVKALWNLRSNDTGLLGNVVNIQTGHWVGKQSGLGAGLDSFYEYLLKSYILFGEKEDLEMFNAAYQSIQNYLRRGREACNEGEGDPPLYVNVNMFSGQLMNTWIDSLQAFFPGLQVLIGDVEDAICLHAFYYAIWKRYGALPERYNWQLQAPDVLFYPLRPELVESTYLLYQATKNPFYLHVGMDILQSLEKYTKVKCGYATLHHVIDKSTEDRMESFFLSETCKYLYLLFDEDNPVHKSGTRYMFTTEGHIVSVDEHLRELPWKEFFSEEGGQDQGGKSVHRPKPHELKVINSSSNCNRVPDERRYSLPLKSIYMRQIDQMVGLI
